{"source": "PubChem BioAssay AID1259308, NCATS | 2017", "purpose": "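Genes whose loss raises luciferase production in HEK293 cells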 (primary screen)", "system": "human HEK293 embryonic kidney cells stably expressing firefly luciferase (HEK-CMV-Luc2-Hygro)", "knock-down reagent": "single siRNA against human genes, 0.8 pmol siRNA per well", "time to read-out": "72 h", "detection": "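Luciferase light (ONE-Glo) measured on one replicate plate set and viability (CellTiter-Glo) on the other, scaled to a negative control siRNA, with robust z-scores and luciferase per cell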", "direction": "total luciferase, z-score and total luciferase, % of control: higher = more reporter protein produced", "rule for the call": "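An siRNA counts as active if its total luciferase robust z-score exceeds 3; genes with two or more such siRNAs out of three were retested with fresh siRNAs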", "meaning of the calls": "active = raised luciferase; inactive = no rise", "note": "Here is one part, drawn at random, of about 59,000 reagents tested. Of all reagents, about 1,510 (2.6%) were called active. 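Calls use total luciferase alone and ignore viability, so some active siRNAs may act by altering cell number.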 Entries without a mark were called inactive. Reagents against one gene are numbered here. Not all columns of the deposit are shown. Reagent sequences are not shown."}
{"target gene": "ROGDI (GeneID 79641)", "reagent no.": 1, "total luciferase, z-score": 1.42, "total luciferase, % of control": 110}
{"target gene": "ROGDI (GeneID 79641)", "reagent no.": 2, "total luciferase, z-score": -0.54, "total luciferase, % of control": 71.1}
{"target gene": "ROGDI (GeneID 79641)", "reagent no.": 3, "total luciferase, z-score": -1.43, "total luciferase, % of control": 53.4}
{"target gene": "DOC2B (GeneID 8447)", "reagent no.": 1, "total luciferase, z-score": -0.177, "total luciferase, % of control": 78.4}
{"target gene": "DOC2B (GeneID 8447)", "reagent no.": 2, "total luciferase, z-score": 2.9, "total luciferase, % of control": 140}
{"target gene": "DOC2B (GeneID 8447)", "reagent no.": 3, "total luciferase, z-score": -0.164, "total luciferase, % of control": 78.6}
{"target gene": "SFXN3 (GeneID 81855)", "reagent no.": 1, "total luciferase, z-score": 0.792, "total luciferase, % of control": 97.6}
{"target gene": "SFXN3 (GeneID 81855)", "reagent no.": 2, "total luciferase, z-score": 0.76, "total luciferase, % of control": 97}
{"target gene": "SFXN3 (GeneID 81855)", "reagent no.": 3, "total luciferase, z-score": -0.685, "total luciferase, % of control": 68.3}
{"target gene": "BRSK2 (GeneID 9024)", "reagent no.": 1, "total luciferase, z-score": -0.0704, "total luciferase, % of control": 80.5}
{"target gene": "BRSK2 (GeneID 9024)", "reagent no.": 2, "total luciferase, z-score": -0.768, "total luciferase, % of control": 66.6}
{"target gene": "BRSK2 (GeneID 9024)", "reagent no.": 3, "total luciferase, z-score": 0.458, "total luciferase, % of control": 91}
{"target gene": "MISP3 (GeneID 113230)", "reagent no.": 1, "total luciferase, z-score": "3.68 (active)", "total luciferase, % of control": 155}
{"target gene": "MISP3 (GeneID 113230)", "reagent no.": 2, "total luciferase, z-score": 0.0774, "total luciferase, % of control": 83.4}
{"target gene": "MISP3 (GeneID 113230)", "reagent no.": 3, "total luciferase, z-score": 0.278, "total luciferase, % of control": 87.4}
{"target gene": "GTF2A2 (GeneID 2958)", "reagent no.": 1, "total luciferase, z-score": 2.13, "total luciferase, % of control": 124}
{"target gene": "GTF2A2 (GeneID 2958)", "reagent no.": 2, "total luciferase, z-score": 1.43, "total luciferase, % of control": 110}
{"target gene": "GTF2A2 (GeneID 2958)", "reagent no.": 3, "total luciferase, z-score": "3.1 (active)", "total luciferase, % of control": 144}
{"target gene": "HNRNPM (GeneID 4670)", "reagent no.": 1, "total luciferase, z-score": 1.67, "total luciferase, % of control": 115}
{"target gene": "HNRNPM (GeneID 4670)", "reagent no.": 2, "total luciferase, z-score": -0.175, "total luciferase, % of control": 78.4}
{"target gene": "HNRNPM (GeneID 4670)", "reagent no.": 3, "total luciferase, z-score": -0.84, "total luciferase, % of control": 65.2}
